Measured values published in PMC10512259.
Results are given in words; binding and its absence hold for the method and conditions named. Binding seen in cells or lysates may run through a third protein. Binding calls can cover weak binding; strength is not graded here. Tags and fused reporters may be left off the sequences shown.

Target: NV-GCN4 (C. albicans Gcn4 tagged at its N-terminus with the N-terminal part of yEmVenus) (Candida albicans)
Assay: split reporter; reconstitution of yEmVenus in living C. albicans cells; fusion proteins under the MET3 promoter, induced 3-4 h at 30°C in medium without methionine and cysteine; epifluorescence microscopy

- binding: binds
B1: CV-MBF1 (C. albicans Mbf1 tagged at its N-terminus with the C-terminal part of yEmVenus) (protein, UniProt Q5A940 1-151)
chain: MSSDWDSVTIIGQKARVGGGGPRENVAKTSSQLNAARRAGLVVGTEKKYGTANTKSNPEGQRLTKLDATDDVVAVKKVDVSVGKAIQQARQEKKLTQKELATKVNEKPNVINDYEAGRAIPNQQLLAKLERALGVKLRGKNIGEPLFAKKK
